Drawing on PMC4815982, this text covers binding for two molecules.

Protein sequences, listed by entry. Tags and fused reporters are not part of them. Lines headed by an entry give the natural chain unless they say otherwise; changes in a name come on top.
UniProt Q96EB6: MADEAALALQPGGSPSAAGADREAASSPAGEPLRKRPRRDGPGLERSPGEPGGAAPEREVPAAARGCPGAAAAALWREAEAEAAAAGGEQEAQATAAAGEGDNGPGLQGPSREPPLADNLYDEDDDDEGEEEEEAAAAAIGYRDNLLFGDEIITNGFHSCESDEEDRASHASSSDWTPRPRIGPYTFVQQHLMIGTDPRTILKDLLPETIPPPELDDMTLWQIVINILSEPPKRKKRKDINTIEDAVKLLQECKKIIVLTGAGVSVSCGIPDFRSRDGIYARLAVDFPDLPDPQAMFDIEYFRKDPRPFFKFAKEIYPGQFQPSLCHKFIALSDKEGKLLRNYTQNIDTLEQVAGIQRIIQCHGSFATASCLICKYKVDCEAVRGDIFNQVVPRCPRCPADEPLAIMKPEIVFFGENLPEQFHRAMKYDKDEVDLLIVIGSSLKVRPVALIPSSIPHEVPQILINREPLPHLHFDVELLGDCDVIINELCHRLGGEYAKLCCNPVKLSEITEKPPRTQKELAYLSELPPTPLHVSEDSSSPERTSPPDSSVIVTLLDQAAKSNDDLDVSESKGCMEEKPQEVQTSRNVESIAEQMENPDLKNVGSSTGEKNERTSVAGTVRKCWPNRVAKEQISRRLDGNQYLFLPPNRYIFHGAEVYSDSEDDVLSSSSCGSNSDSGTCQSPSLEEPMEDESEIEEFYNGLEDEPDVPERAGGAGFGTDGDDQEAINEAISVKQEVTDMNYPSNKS

No constants are given. Whether binding was seen depends on the method and setting. In cells and extracts the contact can be indirect. Some binding calls cover weakened binding; strength is not graded here. For part of these data: Where a sequence is shown, tags or fusion partners need not be part of it.

The target of one assay is Flag-SIRT1^S682A (human) (UniProt Q96EB6). Description: co-IP; Flag-SIRT1 (wild type or mutant) precipitated from lysates of transfected 293T cells, AROS detected by immunoblot; Figures 6d, e: cells untreated or treated with Adriamycin (0.75 μg/ml for 4 h) and MG-132 (20 μM). On the technique in general: A western blot detects proteins with antibodies after separation by electrophoresis.

The target in another assay is Flag-SIRT1 (human) (UniProt Q96EB6). The description is as above.
Assay [1] deals with endogenous SIRT1 (Sirtuin 1) (human (endogenous in U2OS)) (UniProt Q96EB6). The assay is described as follows: co-IP; endogenous SIRT1 precipitated from U2OS lysates, endogenous AROS detected by immunoblot; cells untreated or treated with Adriamycin (0.75 μg/ml for 4 h) and MG-132 (20 μM).

B1: HA-AROS (protein, UniProt Q86WX3 1-136)
chain: MSAALLRRGLELLAASEAPRDPPGQAKPRGAPVKRPRKTKAIQAQKLRNSAKGKVPKSALDEYRKRECRDHLRVNLKFLTRTRSTVAESVSQQILRQNRGRKACDRPVAKTKKKKAEGTVFTEEDFQKFQQEYFGS
Regarding B1, the binding result with Flag-SIRT1^S682A (human) and with Flag-SIRT1 (human) was “binds” in each case.

B2: endogenous AROS (active regulator of SIRT1) (protein, UniProt Q86WX3 1-136)
chain: MSAALLRRGLELLAASEAPRDPPGQAKPRGAPVKRPRKTKAIQAQKLRNSAKGKVPKSALDEYRKRECRDHLRVNLKFLTRTRSTVAESVSQQILRQNRGRKACDRPVAKTKKKKAEGTVFTEEDFQKFQQEYFGS
Regarding B2, the binding result in assay [1] is given as “binds”.
